# From PubChem BioAssay AID1625 (Sanford-Burnham Center for Chemical Genomics, 2009)
# Hit rate of the full screen: of about 190,000 compounds, about 570 (0.3%) were called active. Inconclusive means that the source gave no clear call. Such entries were picked first, then a sample of the others.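 How the source made its calls: active means z-score above 3 at 5 µM with at least 500 cells counted in the well; inconclusive means wells under 500 cells, flagged as cytotoxic or low count; inactive means the rest.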
# Assay: up-regulation of insulin promoter-GFP reporter – imaging, high-content screening, mouse beta cells (AID 1625)
# Conditions: MIN6 insulin promoter-GFP reporter, at 5 µM, active compounds read high
row,SMILES,z-score
1,O=[N+]([O-])c1ccc(/C=N/N=C/c2ccc([N+](=O)[O-])o2)o1,inconclusive: -0.85
2,O=Cc1cc2ccccc2nc1SCc1ccc(Cl)c(Cl)c1,inconclusive: -0.61
3,C=CCc1cc(Cl)ccc1OCCCNC(C)CC (stereo not given),inactive: -0.91
4,Cc1cc(/C=C2/SC(=S)N(c3ccc([N+](=O)[O-])cc3)C2=O)c(C)n1-c1cccnc1,inconclusive: -2.55
5,O=C(NN1CCOCC1)c1ccc(S(=O)(=O)N2CCCCC2)cc1,inactive: 0.25
6,Cc1ccc(-n2c3c(c(=O)[nH]c2=O)C(C(F)(F)F)(C(F)(F)F)NC(=O)N3)cc1,active: 3.01
7,CCS(=O)(=O)n1nc(-c2ccccc2)cc1N,inconclusive: -0.42
8,Cc1ccsc1C(=O)OCC(=O)Nc1cccc(S(=O)(=O)NC2=NCCCCC2)c1,inactive: 1.01
9,Cc1cccc(Cn2c(SCCN3CCCCC3)nc3c2c(=O)[nH]c(=O)n3C)c1,inconclusive: 0.26
10,CC(C)OC(=O)c1c2c(n3ccccc13)C(=O)c1ccccc1C2=O,active: 11.7
11,CCOC(=O)c1sc2nc(CC(=O)OC)nc(NCc3ccc(F)cc3)c2c1C,inconclusive: -1.25
12,Cc1cc([N+](=O)[O-])nn1CCCC(=O)Nc1c(C)n(C)n(-c2ccccc2)c1=O,inactive: -0.01
13,C=CCCC(=O)Nc1nc(C)c(-c2csc(Nc3cc(Cl)ccc3OC)n2)s1,inactive: -1.12
14,CCOc1ccccc1C(=O)N1CCN=C1SC,inconclusive: 0.77
15,O=C(N/N=C/c1ccccc1O)c1cccc(C(F)(F)F)c1,inconclusive: -1
16,CCCOc1ccc(-c2nn(-c3ccccc3)cc2/C=C2\SC(=S)N(C3CCS(=O)(=O)C3)C2=O)cc1 (stereo not given),active: 4.83
17,Cc1ccc(C(=O)N/C(=C\c2ccc(-c3ccc([N+](=O)[O-])cc3)o2)C(=O)NC2CCS(=O)(=O)C2)cc1 (stereo not given),inactive: -0.14
18,CN(/N=C\c1ccc(O)c(O)c1)c1nc(-c2ccccc2)cc(-c2ccccc2)n1,inconclusive: -0.4
19,Cc1cccc2sc(NC(=O)C3=NN(c4ccccc4)C(=O)CC3)nc12,inactive: -1.25
20,CN(Cc1ccccc1)C(=O)C(C(=O)c1ccc(F)cc1)n1cc(Cl)ccc1=O (stereo not given),inactive: -0.86
21,Cc1ccc(S(=O)(=O)N2CCCC2C(=O)Nc2nc3ccccc3s2)cc1 (stereo not given),inactive: -0.23
22,O=C(CSc1nnc(Cn2nnc3ccccc32)o1)N(Cc1ccc(Cl)cc1)c1ccccc1,inconclusive: -10.7
23,Cc1ccc(OCCN2CCN(C(=O)CCC(=O)Nc3nnc(C(C)C)s3)CC2)cc1,inconclusive: -1.36
24,CN(c1ccc(OCC(=O)N2CCOCC2)cc1)S(=O)(=O)c1ccc(Cl)cc1,inactive: 1.29
25,Cc1cc(=O)oc2cc(OCC(=O)OCC(=O)NC3CC3)ccc12,active: 3.8
26,Nc1c(C(=O)O)sc2nc(-c3ccccc3)cc(-c3ccccc3)c12,active: 4.64
27,CCOC(=O)C1CCN(C(=O)c2cccc(NC(=O)C(CC)CC)c2)CC1,inactive: 0.77
28,Cc1ccc(-n2nc(C)c(=O)c(-c3ccccc3)c2NC(=O)C(C)C)cc1,inactive: 0.09

# Grouped by structure: those above containing an NH in an aromatic ring (2)
row,SMILES,z-score
6,Cc1ccc(-n2c3c(c(=O)[nH]c2=O)C(C(F)(F)F)(C(F)(F)F)NC(=O)N3)cc1,active: 3.01
9,Cc1cccc(Cn2c(SCCN3CCCCC3)nc3c2c(=O)[nH]c(=O)n3C)c1,inconclusive: 0.26

# The results go on:

row,SMILES,z-score
1,O=C1N=C2N(CCN3CCCCC3)c3ccccc3N2/C1=C\c1ccc([N+](=O)[O-])o1,inconclusive: -1.82
2,CC(=O)c1cc(F)c(N2CCN(C(=O)COc3ccc(F)cc3)CC2)cc1C,inconclusive: -2.46
3,COc1ccc(-c2c[n+]3c(n2-c2ccccc2)SCC3)cc1,inconclusive: -5.61
4,Oc1c(/C=C/C=C/C=Nc2ccccc2)sc(=S)n1Cc1ccccc1,active: 3.27
5,CSC1=NCCN1C(=O)c1c(F)cccc1Cl,inconclusive: -1.13
6,O=C1CCCc2oc3ccc(O)cc3c21,inactive: 0.25
7,Clc1cccc(Cl)c1NC1=NCCC1,inconclusive: -1.1
8,CCN(C(=O)CSc1nc2cc(C(=O)OC)ccc2c(=O)n1Cc1ccco1)c1cccc(C)c1,active: 4.54
9,O=C(Nc1ccon1)c1cccc(S(=O)(=O)N2CCCCC2)c1,active: 3.46
10,CCOC(=O)c1nn(-c2ccccc2C)c2nc(Nc3ccccc3)cc(=O)n12,inconclusive: -2.11
11,COc1cc(Cl)c(C)cc1NC(=O)CN(C)Cc1cccc(OC)c1OC,active: 3.4
12,COc1ccc(S(=O)(=O)N(Cc2ccccc2)c2ccccc2C(=O)Nc2ccccc2C(=O)NCc2ccco2)cc1,inactive: 0.29
13,CC(C)OC(=O)c1cc(NC(=S)Nc2ccc([N+](=O)[O-])cc2)cc(C(=O)OC(C)C)c1,inconclusive: -1.87
14,CC(=O)c1cccc(N=c2scc(-c3ccc(S(=O)(=O)N4CCOCC4)cc3)n2CCO)c1,inconclusive: -4.51
15,CCOCCCNC(=O)C(NC(=O)c1ccc(=O)[nH]c1)c1ccc(Cl)cc1 (stereo not given),inconclusive: -3.96
16,CCOC(=O)N1CCc2c(sc(NC(=O)CN3CCOCC3)c2C(=O)Nc2ccccc2)C1,inactive: 0.04
17,CC[n+]1ccccc1/C=C/c1ccc(N(C)C)cc1,inconclusive: -1.48
18,O=C(CCl)Nc1cc(SCC(O)CO)cc([N+](=O)[O-])c1 (stereo not given),inconclusive: -2.44
19,COc1cccc(-c2csc(N3CCN(C(=O)NC45CC6CC(CC(C6)C4)C5)CC3)n2)c1,inconclusive: -1.91
20,COc1ccccc1N/C(N)=N/c1nc(CSc2ccc(C)cc2)cc(=O)[nH]1,inconclusive: -0.77
21,C[n+]1cc(C(=O)N2CCCCC2)ccc1/C=C/c1c[nH]c2ccccc12,active: 3.95
22,CCn1c(-c2ccc(N(C)C)cc2)nc2ccccc21,inconclusive: -2.57
23,COc1ccc(C(CCN2CCCC(C)C2)c2c(OC)cc(OC)c3c(-c4ccccc4)cc(=O)oc23)cc1 (stereo not given),inconclusive: -2.57
24,Cc1occc1C(=O)N/N=C/c1ccc(Br)s1,inactive: 0.51
25,O=C1CCCCc2sc(Br)c([N+](=O)[O-])c2N1,inconclusive: -1.9
26,CN1CCC(C2(O)c3ccccc3CCc3ccccc32)CC1,inactive: -0.53
27,CCOC(=O)c1cnc(Nc2nc3ccccc3o2)nc1CSC(=S)N1CCCCC1,inconclusive: -0.55
